Results reported in patent publication US5767085A (Novo Nordisk A/S, priority 1993, dated 1998).

How the values were obtained:
[1] = Fmoc solid-phase peptide synthesis; Rink amide resin; HBTU in NMP (Fmoc); preformed symmetrical anhydrides in DMF (Boc); conditions: whole synthesis, scale 0.22 mmol, TFA salt
[2] = general procedure: Fmoc solid-phase peptide synthesis; 4-((2',4'-dimethoxyphenyl)-(Fmoc-amino)methyl)-phenoxy resin (Rink, Novabiochem) 0.39 mmol/g; 4-methyl BHA resin 0.72 mm; HBTU in NMP (Fmoc); preformed symmetrical anhydrides in DMF (Boc); conditions: whole synthesis, scale of the general procedure 0.22 mmol (Fmoc), 0.5 mmol (Boc)

Substance | isolated mass [1] [mg] | difficulty met [2]
H-AH[d2Nal][dW]K-NH2 | 19.0 | 
(2S)-(H-Ala-His-D-2Nal-D-Phe-NH)-6-aminohexanol |  | The purification had to be repeated in order to obtain a sufficiently pure product.

[ ]: non-standard residue; d: D form. d2Nal = N[C@H](Cc1ccc2ccccc2c1)C(=O)O
